Results taken from the supplement of paper PMC5662767.
Where a name gives a salt, the structure may show the parent alone. The list shows a part of the results. Plates or batches differ in their baseline, so values are only roughly comparable.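 A clonal Drosophila S2 line expresses Smoothened bearing circularly permuted GFP in its cytoplasmic tail; Hh-driven phosphorylation opens an inhibitory loop, making it fluoresce. Flow cytometry measured per-cell fluorescence, normalized to Hh-stimulated untreated cells. Hits were inhibitor groups with shared pathway targets that consistently shifted fluorescence, not individual compounds.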

Test system: Drosophila S2 cl14 SmoIP sensor cells
Experiment: normalized SmoIP GFP fluorescence (untreated unstimulated = 0%, untreated Hh-stimulated = 100%); higher = more Smo activation sensor fluorescence
Conditions: compound concentration: 15 uM, 24 h
[1] = stimulation: Hh conditioned medium (+Hh)
[2] = stimulation: mock conditioned medium (-Hh)

Compound	normalized SmoIP GFP fluorescence [1]	normalized SmoIP GFP fluorescence [2]
CN1CCN(S(=O)(=O)c2ccc(-c3cnc(N)c(C(=O)Nc4cccnc4)n3)cc2)CC1	108%	10.5%
NC(=O)[C@@H](CCC(F)(F)F)N(Cc1ccc(-c2ncon2)cc1F)S(=O)(=O)c1ccc(Cl)cc1	145%	17.4%
COC(=O)C1=C(C)NC(C)=C(C(=O)OC(C)C)C1c1cccc2nonc12 (stereo not drawn) [Isradipine(Dynacirc)]	155%	69.4%
CC(=O)Nc1nc2c(Oc3cc(-c4ccc(C(F)(F)F)cc4)ncn3)cccc2s1	131%	9.79%
CCN1CCN(c2ccc(Nc3cc(N(C)C(=O)Nc4c(Cl)c(OC)cc(OC)c4Cl)ncn3)cc2)CC1	192%	42.8%
COc1cccc(C=NCCN=Cc2cccc(OC)c2[O-])c1[O-].[Cl-].[Mn+3]	113%	-0.662%
CCc1nc(N)nc(N)c1-c1ccc(Cl)cc1 [Pyrimethamine]	171%	18.9%
Nc1ccc2ncnc(NCCc3ccc(Oc4ccccc4)cc3)c2c1	54.5%	46.9%
FC(F)(F)c1ccc(/C=C/c2nc(COc3ccc(CCCCn4ccnn4)cc3)co2)cc1 [Mubritinib-TAK-165]	112%	95.4%
CCc1ccc(/C=C2/SC(=S)NC2=O)cc1	135%	5.47%
Cc1nccn1CC1CCc2c(c3ccccc3n2C)C1=O (stereo not drawn) [Ondansetron-hydrochloride]	143%	4.8%
CN1CCN(C(=O)c2cc3cc(Cl)ccc3[nH]2)CC1	124%	17.1%
CCCNC(=O)Nc1ccc(Oc2ncnc3cc(OC)c(OC)cc23)cc1Cl	147%	8.14%
CC(C)CC(=O)Nc1n[nH]c2c1CN(C(=O)C1CCN(C)CC1)C2(C)C	90.8%	59.4%
C1=C/COCc2cc(ccc2OCCN2CCCC2)Nc2nccc(n2)-c2cccc(c2)COC/1 [pacritinib-sb1518]	146%	19.2%
Cc1ccc(S(=O)(=O)OCC(=O)Nc2ccc(C(=O)O)c(O)c2)cc1	141%	-12.9%
C[C@@H]1C(=O)O[C@H]2C[C@@]34[C@H]5C[C@@H](C(C)(C)C)[C@]36[C@@H](OC(=O)[C@@H]6O)O[C@@]4(C(=O)O5)[C@]21O [ginkgolide-a]	109%	-4.58%
Cc1c(C(=O)NN2CCCCC2)nn(-c2ccc(Cl)cc2Cl)c1-c1ccc(Cl)cc1	129%	41.7%
Cc1c(Nc2ncccc2C(=O)O)cccc1C(F)(F)F [flunixin-meglumin]	91.8%	-10.8%
CC[C@H](Nc1ncnc2[nH]cnc12)c1nc2cccc(F)c2c(=O)n1-c1ccccc1	126%	-14.3%
CCCC(C)NC(=O)c1ccc(Cl)c(Cl)c1 (stereo not drawn)	107%	39.5%
C[C@@H]1CCO[C@H]2Cn3cc(C(=O)NCc4ccc(F)cc4F)c(=O)c(O)c3C(=O)N12	139%	0.334%
COc1ccc2cccc(CCNC(C)=O)c2c1 [Agomelatine]	131%	1.35%
O=C(/C=C\n1cnc(-c2cc(C(F)(F)F)cc(C(F)(F)F)c2)n1)N1CC(F)(F)C1	124%	22.1%
COc1cc2ncnc(Sc3nnc(C)s3)c2cc1OC [sklb1002]	163%	18.4%

Compound	normalized SmoIP GFP fluorescence [1]	normalized SmoIP GFP fluorescence [2]
c1cncc(CN2CCC(n3ncc4c(N5CCOCC5)nc(-c5ccc6[nH]ccc6c5)nc43)CC2)c1	145%	77.5%
COCCc1ccc(OCC(O)CNC(C)C)cc1 (stereo not drawn) [metoprolol-tartrate]	131%	-20.3%
C=CCn1c(=O)c2cnc(Nc3ccc(N4CCN(C)CC4)cc3)nc2n1-c1cccc(C(C)(C)O)n1	125%	11.3%
O=C(NCc1ccccc1)c1csc(Nc2ccncn2)n1 [Thiazovivin]	146%	32.9%
CCOC(=O)C1=C(N)Oc2ccc(Br)cc2C1C(C#N)C(=O)OCC (stereo not drawn)	115%	48.5%
COc1ccccc1N1CCN(CCCNc2cc(=O)n(C)c(=O)n2C)CC1 [urapidil-hydrochloride]	129%	-10.8%
COc1cc2c(cc1OC)CC(=O)N(CCCN(C)C[C@@H]1Cc3cc(OC)c(OC)cc31)CC2 [ivabradine-hcl-procoralan]	123%	-4.35%
CC(=O)Oc1cc2c(s1)CCN(C(C(=O)C1CC1)c1ccccc1F)C2 (stereo not drawn) [Prasugrel]	123%	9%
Cc1cc(-c2ncc(CC(=O)Nc3ccc(-c4cnccn4)cn3)cc2C)ccn1	266%	61.4%
CCN1CCN(Cc2ccc(-c3cc4c(N[C@H](C)c5ccccc5)ncnc4[nH]3)cc2)CC1	190%	66.3%
C[C@H](NC(=O)Cc1cc(F)cc(F)c1)C(=O)N[C@H](C(=O)OC(C)(C)C)c1ccccc1	170%	-6.16%
CC(C)NCC(O)COc1ccc(COCCOC(C)C)cc1 (stereo not drawn) [Bisoprolol-Fumarate]	125%	1.35%
C[C@]12CC[C@@H]3c4ccc(O)cc4CC[C@H]3[C@@H]1CCC2=O [Estrone]	135%	-0.0496%
O=C(O)/C=C/c1ccc(Cn2ccnc2)cc1 [Ozagrel]	120%	-12.9%
O=C(Nc1cccc(C(F)(F)F)c1)Nc1cc(S(=O)(=O)NC2CC2)ccc1-c1ccsc1	153%	42.6%
Cc1c(CN2CCN(C(=O)[C@H](C)O)CC2)sc2c(N3CCOCC3)nc(-c3cnc(N)nc3)nc12	57.1%	-8.59%
CCCCc1nc(Cl)c(CO)n1Cc1ccc(-c2ccccc2-c2nnn[nH]2)cc1 [losartan-potassium]	134%	-0.265%
CC1(C)O[C@@H]2[C@@H](CO[C@@]3(COS(N)(=O)=O)OC(C)(C)O[C@@H]23)O1 [Topiramate]	142%	4.8%
O=c1c(-c2ccc(O)cc2)coc2cc(O)cc(O)c12 [Genistein]	122%	2.97%
CN(C)CC/C=C1/c2ccccc2Sc2ccc(Cl)cc21 [Chlorprothixene]	154%	31.7%
C=C1C(=O)O[C@@H]2/C=C(\C)CC/C=C(\C)CC[C@@H]12 [Costunolide]	82.6%	30%
COCC(=O)NC/C=C/c1ccc2ncnc(Nc3ccc(Oc4ccc(C)nc4)c(C)c3)c2c1	93.8%	53.9%
CC(=O)NS(=O)(=O)c1ccc(N)cc1 [sulfacetamide-sodium]	110%	-4.35%
CC1=C(C(=O)OC2CCCCC2)C(c2ccc([N+](=O)[O-])cc2)C2=C(CC(C)(C)CC2=O)N1 (stereo not drawn)	124%	17.7%

Reformatted field by field: entries from further up.
CCCCc1nc(Cl)c(CO)n1Cc1ccc(-c2ccccc2-c2nnn[nH]2)cc1 [losartan-potassium]
  normalized SmoIP GFP fluorescence [1]: 134%
  normalized SmoIP GFP fluorescence [2]: -0.265%
CC1(C)O[C@@H]2[C@@H](CO[C@@]3(COS(N)(=O)=O)OC(C)(C)O[C@@H]23)O1 [Topiramate]
  normalized SmoIP GFP fluorescence [1]: 142%
  normalized SmoIP GFP fluorescence [2]: 4.8%
